For at least one compound, name, drawing or mass did not settle the structure.
Assays:
Format in all cases: cell-based
mouse iPS cells [1] = experiment: flow cytometry analysis of Nanog-GFP positive cell population; settings: PI3K inhibitor 5 ng/ml + LIF 25 units/ml, without the CCL2
Experimental: In the present example, the above-described DMEM to which the LIF and mouse recombinant CCL2 (MCP-1, #479-JE-010, R&D Systems) had been added was used. In the medium, the final concentration of the LIF was set to 25 units/ml, and the concentration of the recombinant CCL2 was set to 500 ng/ml. The amount of the medium to be added to a 12-well dish was set to 1 ml per well. On the other hand, in a comparative example, the above-described DMEM containing the LIF but not containing the CCL2 was used. The final concentration of the LIF was set to 25 units/ml. […]
The flow cytometry analysis was carried out in the following manner. […] Then, this cell suspension was applied to a flow cytometer (trade name: BD FACSAria (registered trademark) II, Becton, Dickinson and Company), and analyzed in accordance with the protocol of the flow cytometer. At this time, as a cell population having pluripotency, i.e., undifferentiated cell population, a Nanog-GFP-positive region sorted out based on FITC-A>10^4 was monitored. The raw data was analyzed by a program (FlowJo, ver. 7), and plotted in the form of density plot. […] Thus, when the cells expressed the Nanog gene, it means the cells were Nanog-GFP positive, so that the GFP was produced and this GFP was detected by the FACS. […]

human iPS cells = experiment: phase-contrast morphology of human iPS cells with JAK or PI3K inhibitor; settings: PI3K inhibitor 5 ng/ml, 6 days
Experimental: As a JAK inhibitor, a JAK inhibitor I (Merck) was used. As PI3K inhibitor, the same LY294002 as used in Example 4 was used. Human iPS cells were cultured for 6 days under feeder conditions in the same manner as in the above item (1), except that not only the CCL2 but also the JAK inhibitor or the PI3K inhibitor further was added to the medium. In the medium, the concentration of the Jak inhibitor was set to 10 ng/ml, and the concentration of the PI3K inhibitor was set to 5 ng/ml.
Furthermore, as a control, the cells were cultured in the same manner as in the above using the following media, respectively: a medium containing bFGF instead of the CCL2 and containing DMSO (5 ng/ml) instead of the inhibitor; and a medium containing bFGF (5 ng/ml) instead of the CCL2 and containing the inhibitor.
The phase-contrast micrographs show the results obtained under the conditions of, from the above: the inhibitor not added (DMSO added); the JAK inhibitor added; and the PI3K inhibitor added.

mouse iPS cells [2] = experiment: quantitative RT-PCR of undifferentiated marker genes, recombinant CCL2 added to mouse iPS cells under feeder free conditions; settings: PI3K inhibitor 5 ng/ml + LIF 25 units/ml, without CCL2, relative to negative control
Experimental: A PrimeScript RT-PCR Kit (trade name, TAKARA BIO INC.), an ABI 7500 Fast real time PCR system (trade name, Applied BioSystems), and a SYBR (registered trademark) Premix Ex Taq (trade name, TAKARA BIO INC.) were used in accordance with their protocols. PCR was carried out by conducting 40 cycles of treatment with a treatment at 94° C. for 5 second and at 62.5° C. for 20 seconds as 1 cycle. The expression level of each gene was calculated by normalizing the relative amount of mRNA in the gene to Gapdh mRNA according to the 2^−ΔΔ^CT method (Thomse R, Solvsten C A, Linnet T E, et al., Analysis of qPCR data by converting exponentially related Ct values into linearly related XO values. J Bioinform Comput Biol 2010: 8: 885-900.).
The medium of a negative control used was the above-described DMEM containing the above-described LIF. […]
Furthermore, after the culture of the mouse iPS cells, the expression level of the Tbx3 gene was determined in the same manner as in the item (1) of Example 1. Then, the fold change in expression level relative to the negative control was calculated. […]
The mouse iPS cells cultured under the feeder free conditions were cultured in the medium of the example and the medium of the comparative example, respectively. […] 24 hours after the culture, the expression levels of the undifferentiated marker genes were determined in the same manner as in the item (1) of Example 1. […]

SMILES: O=c1cc(N2CCOCC2)oc2c(-c3ccccc3)cccc12 [PI3K inhibitor, LY294002, reference compound]
- number of undifferentiated cells having pluripotency (Nanog-GFP positive) (mouse iPS cells [1]): decreased markedly
- undifferentiation potency, cell morphology (human iPS cells; bFGF(+)/CCL2(-)): almost all the cells had been differentiated and many dead cells were observed
- undifferentiation potency, cell morphology (human iPS cells; bFGF(-)/CCL2(+)): many of the cells maintained the undifferentiation potency
- expression level of the Tbx3 gene (mouse iPS cells [2]): decreased markedly

— patent US20140017790A1, “CONTROL AGENT FOR CONTROLLING UNDIFFERENTIATED STATE AND USE THEREOF” (RIKEN, priority 2011, published 2014)
